This passage reports binding results from article PMC8016126.

Amino acid sequences for entries named in this document (tags omitted). A change or cut given only in a name is not applied to a line headed by its entry.
UniProt Q9UI95: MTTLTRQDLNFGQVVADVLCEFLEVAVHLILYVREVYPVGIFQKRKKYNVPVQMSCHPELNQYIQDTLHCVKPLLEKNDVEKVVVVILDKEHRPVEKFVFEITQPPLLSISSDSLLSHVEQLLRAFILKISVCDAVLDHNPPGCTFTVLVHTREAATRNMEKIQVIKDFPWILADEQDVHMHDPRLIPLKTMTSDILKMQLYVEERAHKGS

Results are given in words; binding and its absence hold for the method and conditions named. Some results given as binding are weak or reduced against the parent protein; the word gives no strength.

The assay has as its target polyhistidine-tagged REV7 (R124A) (UniProt Q9UI95). Nature of the assay: co-purification (co-expression, metal affinity chromatography); His-tagged REV7(R124A) and REV3(1847-1898) co-expressed in E. coli BL21 STAR (DE3); complex purified by metal affinity chromatography by the His tag on REV7.

B1: truncated REV3 (residues 1847-1898) (domain or fragment, UniProt O60673 1847-1898)
chain: MLTPTPDSSPRSTSSPSQSKNGSFTPRTANILKPLMSPPSREEIMATLLDHD
As for B1, the binding result is on record as “binds”.
